Drawing on publication PMC5647328, this text covers binding for one substance.

Protein sequences, listed by entry. Tags and fused reporters are not part of them.
UniProt Q6BEB4: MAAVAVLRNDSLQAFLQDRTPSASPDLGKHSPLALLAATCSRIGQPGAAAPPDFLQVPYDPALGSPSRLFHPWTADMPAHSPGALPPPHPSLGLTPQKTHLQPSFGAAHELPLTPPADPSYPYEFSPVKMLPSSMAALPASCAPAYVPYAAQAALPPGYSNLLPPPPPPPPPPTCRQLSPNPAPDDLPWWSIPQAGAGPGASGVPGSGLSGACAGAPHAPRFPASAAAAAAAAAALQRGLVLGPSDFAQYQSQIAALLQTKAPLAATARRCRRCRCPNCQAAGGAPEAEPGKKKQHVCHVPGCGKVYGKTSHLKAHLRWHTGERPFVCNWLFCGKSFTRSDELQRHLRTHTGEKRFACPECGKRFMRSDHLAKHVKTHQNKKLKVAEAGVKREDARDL
UniProt P35222: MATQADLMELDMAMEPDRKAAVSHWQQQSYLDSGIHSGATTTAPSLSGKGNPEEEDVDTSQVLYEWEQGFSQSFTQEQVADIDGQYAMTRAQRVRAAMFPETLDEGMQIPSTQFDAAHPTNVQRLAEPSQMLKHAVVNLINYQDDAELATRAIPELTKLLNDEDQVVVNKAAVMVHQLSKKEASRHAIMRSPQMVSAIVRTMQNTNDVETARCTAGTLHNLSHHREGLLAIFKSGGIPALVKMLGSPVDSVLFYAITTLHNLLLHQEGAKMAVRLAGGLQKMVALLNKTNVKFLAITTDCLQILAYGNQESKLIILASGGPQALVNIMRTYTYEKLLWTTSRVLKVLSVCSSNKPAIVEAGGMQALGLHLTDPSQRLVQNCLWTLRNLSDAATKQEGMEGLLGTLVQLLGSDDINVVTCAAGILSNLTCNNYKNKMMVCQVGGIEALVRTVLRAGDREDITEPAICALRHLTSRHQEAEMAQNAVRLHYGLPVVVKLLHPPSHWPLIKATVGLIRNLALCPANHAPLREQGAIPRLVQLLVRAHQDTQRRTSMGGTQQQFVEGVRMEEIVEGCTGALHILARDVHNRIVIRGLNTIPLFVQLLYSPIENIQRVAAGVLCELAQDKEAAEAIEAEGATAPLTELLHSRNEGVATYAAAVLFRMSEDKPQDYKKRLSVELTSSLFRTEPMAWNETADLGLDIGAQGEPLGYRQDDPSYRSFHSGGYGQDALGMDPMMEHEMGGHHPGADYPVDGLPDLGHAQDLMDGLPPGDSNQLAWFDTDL

These are yes or no findings as the source states them, for the method shown. In cells and extracts the contact can be indirect. These calls come from enrichment with a bait or labelling near it, and not all partners need be listed.

The assay deals with SP5–APEX2 fusion protein (human) (UniProt Q6BEB4). As to the kind of experiment: proximity labelling; HEK-293 cells transfected with SP5-APEX2; 48 h later 500 µM biotin-phenol for 30 min, 1 mM H2O2 for 1 min; lysis in RIPA, streptavidin beads, immunoblot. (In general: A western blot detects proteins with antibodies after separation by electrophoresis.)

Consider β-catenin (from UniProt P35222 1-781), for which the binding entry was “binds”.
